PubChem BioAssay AID1508597, Cure First | 2020
Shown is an unselected part of the about 2,100 reagents, in one setting of the screen. 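Calls flag viability under 80% in either arm, not effects specific to rucaparib; the reference for percent is not stated.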 The record does not give: the 100% reference.

- Test: 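Survival screen with siRNA in ovarian cancer cells derived from patients, with or without rucaparib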 (primary screen)
- System: human ovarian carcinoma lines grown from tumours: OCI-P5x (papillary serous) and OCI-C5x (clear cell)
- Reagents: siRNA pool against human genes, 1.25 pmol siRNA per well
- Timing: 72 h or 96 h, depending on the cell culture
- Treatment: rucaparib 20 µM (about IC30) or vehicle, present until read-out
- Rucaparib or vehicle: Vehicle
- Cell line: OCI-P5x (serous)
- Read-out: 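Luminescent ATP-based viability assay read 72 or 96 h after transfection, depending on culture, given as normalised percent viability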
- Direction: viability, normalised: higher = more viable cells remaining
- Active means: 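a well counts as a hit if its normalised viability is under 80 percent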
- Calls: active = viability under 80%; inactive = viability 80% or more

Target gene	technical replicate	viability, normalised (%)	call
ZDHHC1	1	65.4	active
ZDHHC1	2	66.7	active
ZDHHC1	3	50.8	active
ZNF384	1	55.2	active
ZNF384	2	57.7	active
ZNF384	3	57.3	active
CHUK	1	71.6	active
CHUK	2	60.7	active
CHUK	3	65.8	active

Continued (3 carried over from the part before).
Target gene	technical replicate	viability, normalised (%)	call
CHUK	1	71.6	active
CHUK	2	60.7	active
CHUK	3	65.8	active
SPO11	1	80.7	inactive
SPO11	2	59.1	active
SPO11	3	69.2	active
PGK2	1	93.7	inactive
PGK2	2	99.6	inactive
PGK2	3	83.2	inactive
MYB	1	50.2	active
MYB	2	58.6	active
MYB	3	70.1	active
ARFGEF2	1	60.3	active
ARFGEF2	2	44.5	active
ARFGEF2	3	64.9	active
ARFRP1	1	80.4	inactive
ARFRP1	2	72	active
ARFRP1	3	60.5	active
